Test results: PMC4973239, “Crystal structure of the human Tip41 orthologue, TIPRL, reveals a novel fold and a binding site for the PP2Ac C-terminus” (Scientific Reports, 2016)
No constants are given. Whether binding was seen depends on the method and setting. Where a sequence is shown, tags or fusion partners need not be part of it. Blank lines part the entries; values can stand above or below the binder they belong to.

Key:
[1] = molecular target: T1, His-tagged, full length TIPRL (human), O75663; experiment: SEC; size exclusion profiles under different conditions (Fig. S1B), high concentration; HiLoad 26/60 Superdex 75 pg, Tris 20 mM pH 7.5, 100 mM NaCl, 10 mM β-mercaptoethanol; both purified; conditions: remark: other sources report otherwise
T1 chain: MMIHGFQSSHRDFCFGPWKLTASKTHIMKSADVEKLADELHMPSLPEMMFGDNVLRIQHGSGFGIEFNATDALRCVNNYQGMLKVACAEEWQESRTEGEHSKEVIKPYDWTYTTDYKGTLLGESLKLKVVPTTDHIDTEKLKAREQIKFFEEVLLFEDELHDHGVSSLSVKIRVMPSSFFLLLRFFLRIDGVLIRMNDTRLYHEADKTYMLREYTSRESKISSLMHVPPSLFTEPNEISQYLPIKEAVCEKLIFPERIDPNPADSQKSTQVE

[2] = molecular target: T2, full length TIPRL, affinity tag removed (human), O75663; experiment: as above; conditions: remark: other sources report otherwise
T2 chain: T1 chain

- binding [1]: no binding
B1: His-tagged, full length TIPRL, O75663-1 1-272 (protein)
chain: T1 chain

- binding [2]: no binding
B2: full length TIPRL, affinity tag removed, O75663-1 1-272 (protein)
chain: T1 chain
